Results taken from article PMC5382670.
No constants are given. Whether binding was seen depends on the method and setting. In cells and extracts the contact can be indirect. Some binding calls cover weakened binding; strength is not graded here.

Amino acid sequences for entries named in this document (tags omitted).
UniProt Q62120: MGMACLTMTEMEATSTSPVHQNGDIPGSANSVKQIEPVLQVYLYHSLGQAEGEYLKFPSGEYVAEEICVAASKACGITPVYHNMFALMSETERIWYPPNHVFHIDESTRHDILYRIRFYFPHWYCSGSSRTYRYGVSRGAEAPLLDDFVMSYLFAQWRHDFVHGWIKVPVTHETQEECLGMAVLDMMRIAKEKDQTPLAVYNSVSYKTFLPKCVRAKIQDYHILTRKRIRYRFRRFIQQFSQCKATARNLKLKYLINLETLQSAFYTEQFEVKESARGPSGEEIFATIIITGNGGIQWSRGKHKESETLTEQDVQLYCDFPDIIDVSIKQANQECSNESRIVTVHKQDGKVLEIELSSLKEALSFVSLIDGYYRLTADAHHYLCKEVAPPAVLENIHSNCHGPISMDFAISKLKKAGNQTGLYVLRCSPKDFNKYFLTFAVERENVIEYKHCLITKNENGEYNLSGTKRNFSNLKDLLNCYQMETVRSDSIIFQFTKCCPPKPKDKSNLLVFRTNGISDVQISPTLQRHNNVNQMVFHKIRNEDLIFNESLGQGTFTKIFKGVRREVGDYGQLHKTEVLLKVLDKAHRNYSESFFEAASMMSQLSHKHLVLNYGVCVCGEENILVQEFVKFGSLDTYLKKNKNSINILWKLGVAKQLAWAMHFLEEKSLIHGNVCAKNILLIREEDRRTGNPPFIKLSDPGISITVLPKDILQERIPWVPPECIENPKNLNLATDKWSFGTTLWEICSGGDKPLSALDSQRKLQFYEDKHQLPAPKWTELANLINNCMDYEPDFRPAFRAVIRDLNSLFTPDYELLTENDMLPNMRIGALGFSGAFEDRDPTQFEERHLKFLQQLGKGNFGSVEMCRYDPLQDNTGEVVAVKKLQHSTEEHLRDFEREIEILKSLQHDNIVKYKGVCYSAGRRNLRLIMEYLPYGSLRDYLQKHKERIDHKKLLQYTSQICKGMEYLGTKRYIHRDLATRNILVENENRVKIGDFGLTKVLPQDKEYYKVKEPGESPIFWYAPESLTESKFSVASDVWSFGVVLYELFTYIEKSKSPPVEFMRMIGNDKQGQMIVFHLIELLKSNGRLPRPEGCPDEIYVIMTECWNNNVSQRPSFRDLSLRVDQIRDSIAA

Target: Janus kinase 2 (JAK2), endogenous in mouse NK cells (mouse (endogenous in splenic NK cells)) (UniProt Q62120)
Test: proximity ligation; Duolink in situ PLA of endogenous proteins in mouse splenic (primary) NK cells treated with IL-15 (30 ng/ml) for 12 hours; WT and SOCS2-/- cells compared for IL-15R-JAK2

binding: binds
B1: Suppressor of cytokine signaling 2 (SOCS2), endogenous in mouse NK cells (protein, UniProt O35717 1-198)
chain: MTLRCLEPSGNGADRTRSQWGTAGLPEEQSPEAARLAKALRELSQTGWYWGSMTVNEAKEKLKEAPEGTFLIRDSSHSDYLLTISVKTSAGPTNLRIEYQDGKFRLDSIICVKSKLKQFDSVVHLIDYYVQMCKDKRTGPEAPRNGTVHLYLTKPLYTSAPTLQHFCRLAINKCTGTIWGLPLPTRLKDYLEEYKFQV
